The target in experiment [1] is Flag-tagged truncated AFF1 (residues 1–308) V67A (UniProt P51825). Kind of experiment: co-IP; anti-Flag immunoprecipitates from nuclear extracts of HeLa cells expressing Flag-tagged AFF1 (residues 1–308); Western blot.
Experiment [2] deals with Flag-tagged truncated AFF1 (residues 1–308) F70A (UniProt P51825). The description is as above.
The target of experiment [3] is Flag-tagged truncated AFF1 (residues 1–308), WT (UniProt P51825). Described as above.
Experiment [4] deals with Flag-tagged truncated AFF1 (residues 1–308) V67A/F70A (UniProt P51825). Described as above.
Experiment [5] concerns the target human cyclin T1 1–264 (human) (UniProt O60563). Kind of experiment: crystal structure; quaternary complex of Tat 1–57, AFF4 2–73, CDK9 1–330 and CycT1 1–264; 3.0 Å; three complexes in the a.u.; crystals from 2.4 M sodium formate, 10 mM MgCl2 at 18°C; both purified.
The target of another experiment is HIV-1 Tat 1–57 (HIV-1) (UniProt P04608). The experiment is described as above.
Experiment [6] deals with Tat-P-TEFb complex (HIV-1 Tat 1–57, CDK9 1–330, cyclin T1 1–264) (HIV-1 | human) (UniProt P04608). The description is as above.

Amino acid sequences for entries named in this document (tags omitted). A change or cut given only in a name is not applied to a line headed by its entry. Chains listed by the source or under a name are the forms on record and can include a tag or linker. Residues count along the entry.
Flag-tagged truncated AFF1 (residues 1–308), WT (P51825, residues 1-308): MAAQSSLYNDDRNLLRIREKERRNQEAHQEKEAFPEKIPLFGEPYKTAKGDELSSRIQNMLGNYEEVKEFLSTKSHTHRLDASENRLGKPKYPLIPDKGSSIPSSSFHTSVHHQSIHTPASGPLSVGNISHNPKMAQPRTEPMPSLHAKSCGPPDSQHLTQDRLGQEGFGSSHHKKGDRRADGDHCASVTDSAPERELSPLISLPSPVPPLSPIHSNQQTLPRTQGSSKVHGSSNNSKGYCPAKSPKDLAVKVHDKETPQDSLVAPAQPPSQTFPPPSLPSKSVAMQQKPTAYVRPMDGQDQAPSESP
Flag-tagged truncated AFF1 (residues 1–308) V67A (P51825, form named): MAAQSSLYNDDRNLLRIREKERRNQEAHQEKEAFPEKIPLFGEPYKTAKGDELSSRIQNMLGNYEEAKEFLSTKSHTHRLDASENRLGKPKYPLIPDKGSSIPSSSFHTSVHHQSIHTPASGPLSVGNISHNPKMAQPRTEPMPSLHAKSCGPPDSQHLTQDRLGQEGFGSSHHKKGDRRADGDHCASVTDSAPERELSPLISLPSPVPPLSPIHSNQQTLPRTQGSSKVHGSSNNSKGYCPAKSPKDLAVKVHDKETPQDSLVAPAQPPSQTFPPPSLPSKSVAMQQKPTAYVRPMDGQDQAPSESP
Flag-tagged truncated AFF1 (residues 1–308) F70A (P51825, form named): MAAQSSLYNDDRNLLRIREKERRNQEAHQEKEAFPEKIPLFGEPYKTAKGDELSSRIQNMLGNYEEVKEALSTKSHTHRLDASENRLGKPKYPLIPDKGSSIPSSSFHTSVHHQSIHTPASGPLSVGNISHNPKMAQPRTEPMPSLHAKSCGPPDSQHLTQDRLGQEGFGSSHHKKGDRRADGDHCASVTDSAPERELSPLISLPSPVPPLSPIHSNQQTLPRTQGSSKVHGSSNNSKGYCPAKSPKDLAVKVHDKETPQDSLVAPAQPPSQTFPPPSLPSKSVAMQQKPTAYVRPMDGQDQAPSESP
Flag-tagged truncated AFF1 (residues 1–308) V67A/F70A (P51825, form named): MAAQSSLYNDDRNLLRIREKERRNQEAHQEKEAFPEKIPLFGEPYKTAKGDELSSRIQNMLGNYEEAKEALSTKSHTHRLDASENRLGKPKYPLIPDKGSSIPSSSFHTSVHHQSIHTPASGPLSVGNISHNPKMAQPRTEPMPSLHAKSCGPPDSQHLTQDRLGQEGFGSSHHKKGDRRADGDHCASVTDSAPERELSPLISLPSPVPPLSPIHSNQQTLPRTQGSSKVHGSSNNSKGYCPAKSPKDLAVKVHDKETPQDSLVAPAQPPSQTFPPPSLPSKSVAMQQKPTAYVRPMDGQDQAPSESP
UniProt O60563, residues 1-264: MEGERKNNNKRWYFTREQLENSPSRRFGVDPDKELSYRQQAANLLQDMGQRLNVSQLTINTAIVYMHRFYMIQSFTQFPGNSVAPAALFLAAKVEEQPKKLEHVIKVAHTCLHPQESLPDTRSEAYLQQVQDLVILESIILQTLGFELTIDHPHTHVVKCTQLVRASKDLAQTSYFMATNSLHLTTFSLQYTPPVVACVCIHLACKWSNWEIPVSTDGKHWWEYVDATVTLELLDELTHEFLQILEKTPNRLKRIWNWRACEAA
UniProt P04608, residues 1-57: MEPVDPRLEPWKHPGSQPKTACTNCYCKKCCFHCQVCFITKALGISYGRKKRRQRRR
UniProt P50750: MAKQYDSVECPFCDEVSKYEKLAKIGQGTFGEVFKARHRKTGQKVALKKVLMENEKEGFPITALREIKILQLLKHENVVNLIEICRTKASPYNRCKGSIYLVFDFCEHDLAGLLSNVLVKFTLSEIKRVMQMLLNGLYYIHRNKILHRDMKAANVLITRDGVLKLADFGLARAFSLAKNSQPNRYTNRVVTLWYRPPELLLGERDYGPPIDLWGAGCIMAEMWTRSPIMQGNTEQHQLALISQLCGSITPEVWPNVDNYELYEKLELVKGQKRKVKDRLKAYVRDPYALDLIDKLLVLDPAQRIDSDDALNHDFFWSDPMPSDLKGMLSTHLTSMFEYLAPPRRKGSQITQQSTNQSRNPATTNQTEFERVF

No constants are given. Whether binding was seen depends on the method and setting. For some of these results: In cells and extracts the contact can be indirect. Some entries that bind do so weakly or less than the wild type.

Turning to “CDK9 in HeLa nuclear extract (from UniProt P50750 1-372)”, the binding result in experiment [1], in experiment [2], in experiment [3] and in experiment [4] was “binds” throughout.

Regarding “HIV-1 Tat 1–57 (from UniProt P04608 1-57) (domain or fragment)”, the binding entry in experiment [5] is given as “binds”.

B1: AFF4 fragment 2–73 (domain or fragment, UniProt Q9UHB7 2-73, looked up)
chain: NREDRNVLRMKERERRNQEIQQGEDAFPPSSPLFAEPYKVTSKEDKLSSRIQSMLGNYDEMKDFIGDRSIPK
notes: AFF4 (SEC scaffold), residues 2-73; The His-tag is TEV-protease-cleavable; also called AFF4_(2–73); source: E. coli, purified
As to B1, the binding result (in the experiment with HIV-1 Tat 1–57 (HIV-1); in experiment [6]) was “binds” throughout.

(Values after paper PMC4013717, “AFF4 binding to Tat-P-TEFb indirectly stimulates TAR recognition of super elongation complexes at the HIV promoter” (eLife, 2014).)
